Experimental data published in publication PMC5974431.
Numbering of substitutions follows the chain as printed. No constants are given. Whether binding was seen depends on the method and setting. Binding seen in cells or lysates may run through a third protein. Some entries that bind do so weakly or less than the wild type. Tags and fused reporters may be left off the sequences shown.

Amino acid sequences for entries named in this document (tags omitted).
UniProt Q96AP0: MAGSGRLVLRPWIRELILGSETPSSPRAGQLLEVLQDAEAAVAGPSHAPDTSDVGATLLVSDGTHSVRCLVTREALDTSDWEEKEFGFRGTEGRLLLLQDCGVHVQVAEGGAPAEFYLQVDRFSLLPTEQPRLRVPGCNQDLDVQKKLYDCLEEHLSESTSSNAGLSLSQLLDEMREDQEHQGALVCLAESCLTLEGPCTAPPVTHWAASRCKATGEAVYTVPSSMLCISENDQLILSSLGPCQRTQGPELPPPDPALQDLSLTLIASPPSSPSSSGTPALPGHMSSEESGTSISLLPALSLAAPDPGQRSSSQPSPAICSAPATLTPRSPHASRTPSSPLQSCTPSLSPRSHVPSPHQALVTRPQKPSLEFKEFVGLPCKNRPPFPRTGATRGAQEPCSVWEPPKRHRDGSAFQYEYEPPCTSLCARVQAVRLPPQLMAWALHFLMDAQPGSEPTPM
UniProt P54274: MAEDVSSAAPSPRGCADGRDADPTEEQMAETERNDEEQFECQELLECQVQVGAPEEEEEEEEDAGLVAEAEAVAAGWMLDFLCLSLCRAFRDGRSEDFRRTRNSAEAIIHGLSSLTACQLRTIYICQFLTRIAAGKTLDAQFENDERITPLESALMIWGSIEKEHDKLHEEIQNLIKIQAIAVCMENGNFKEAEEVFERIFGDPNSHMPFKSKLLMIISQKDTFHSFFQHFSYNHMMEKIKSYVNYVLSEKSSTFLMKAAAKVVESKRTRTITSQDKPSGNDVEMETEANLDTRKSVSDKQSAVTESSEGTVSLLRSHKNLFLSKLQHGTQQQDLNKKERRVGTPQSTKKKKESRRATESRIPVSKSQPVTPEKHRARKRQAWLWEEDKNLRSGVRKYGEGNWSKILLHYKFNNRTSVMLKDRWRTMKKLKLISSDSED

How the values were obtained:
Test in all cases: co-IP; HEK 293T cells cotransfected with 5 μg of each plasmid, lysed after 24 h (lysis buffer with 400 mM NaCl, 1% Triton X-100, 0.1% SDS, then an equal amount of water); supernatants incubated overnight at 4°C with anti-FLAG M2 magnetic beads or anti-Myc 9E10; immunoblot; the co-precipitated TRF1, TRF2 or TPP1 divided by the TIN2 precipitated and normalised to TIN2S
flag-2×HA-TIN2S (human) = target: T1, flag-2×HA-TIN2S (human) (UniProt Q9BSI4)
T1 sequence: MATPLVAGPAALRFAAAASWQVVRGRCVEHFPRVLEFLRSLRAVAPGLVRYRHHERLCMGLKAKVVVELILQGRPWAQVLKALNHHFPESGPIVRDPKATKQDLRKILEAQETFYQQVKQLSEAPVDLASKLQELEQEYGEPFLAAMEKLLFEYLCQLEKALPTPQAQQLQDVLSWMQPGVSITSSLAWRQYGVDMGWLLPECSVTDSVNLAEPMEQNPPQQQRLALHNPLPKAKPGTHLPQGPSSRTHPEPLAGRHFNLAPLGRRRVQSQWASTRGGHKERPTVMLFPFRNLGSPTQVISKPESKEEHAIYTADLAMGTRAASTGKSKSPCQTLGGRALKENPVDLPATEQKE

[1] = target: T2, flag-2×HA-TIN2S-R282H (human) (UniProt Q9BSI4)
T2 sequence: T1 sequence with R282H

[2] = target: T3, flag-2×HA-TIN2L-S396A (human) (UniProt Q9BSI4)
T3 sequence: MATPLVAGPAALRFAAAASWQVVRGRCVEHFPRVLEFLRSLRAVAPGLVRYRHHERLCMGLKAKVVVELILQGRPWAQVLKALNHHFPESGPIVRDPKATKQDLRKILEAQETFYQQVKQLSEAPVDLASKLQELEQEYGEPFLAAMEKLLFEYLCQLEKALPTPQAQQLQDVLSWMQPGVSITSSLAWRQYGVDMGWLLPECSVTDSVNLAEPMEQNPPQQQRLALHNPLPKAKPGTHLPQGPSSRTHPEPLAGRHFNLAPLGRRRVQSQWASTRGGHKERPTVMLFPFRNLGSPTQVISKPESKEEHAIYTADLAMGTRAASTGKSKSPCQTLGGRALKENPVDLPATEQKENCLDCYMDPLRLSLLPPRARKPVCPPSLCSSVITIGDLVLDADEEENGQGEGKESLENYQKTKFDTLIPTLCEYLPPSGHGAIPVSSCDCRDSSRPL

[3] = target: T4, flag-2×HA-TIN2L-R282H (human) (UniProt Q9BSI4)
T4 sequence (chain, R282H did not affect TIN2L phosphorylation (Phos-tag)): T3 sequence with R282H, A396S

Measured: binding

myc-TPP1 (from UniProt Q96AP0 1-458)
binds: flag-2×HA-TIN2S (human) | [1] | [2]

myc-TRF1 (from UniProt P54274 1-439)
binds: all assays above
